PubChem BioAssay AID1224826, NIAID – 2016
Assay: 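Regulators of Tlr4 signalling leading to Tnf-alpha expression in macrophages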 (primary screen). System: RAW264.7 G9 macrophages from mouse bearing reporters for p65 (GFP) and the Tnf promoter (mCherry). Knock-down reagent: siRNA pool against mouse genes, 100 nM. Duration: 16 h of LPS stimulation, after 2 days of siRNA transfection. Challenge: bacterial lipopolysaccharide (Salmonella minnesota R595), 10 ng/ml. Measured: 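Imaged Tnf reporter mCherry in nuclei, minus background, normalised per plate to the median and expressed as robust z-scores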. Scale: Tnf reporter robust z-score: higher = stronger Tnf promoter reporter signal after LPS. Call rule: 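a well counts as active at a score of -1.3 or below (Tlr4 knock-down control median) or above 3 (raised signal); controls and wells holding fewer than 50 cells are excluded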. Calls: active = Tnf reporter clearly lowered or raised; inactive = no clear change in Tnf reporter.
The deposit covers about 17,000 reagents; below is a random part of them. Over the whole deposit, about 1,110 (6.6%) were called active. 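Active means lowered or raised reporter signal; replicate intensities are raw and not normalised per plate.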 Entries without a mark were called inactive. The numbers tell different reagents against one gene apart. Not all columns of the deposit are shown.

gene knocked down,pool no.,Tnf reporter robust z-score,fewer than 50 cells in well
Fyttd1,1,,fewer than 50 cells per well; well left out of calls
Dyrk1a,1,-0.91,enough cells in well
Tnxb,1,-0.04,enough cells in well
Acbd3,1,-0.1,enough cells in well
Scarb1,1,0.04,enough cells in well
Bgn,1,-0.98,enough cells in well
Il1f10,1,0.25,enough cells in well
Wdr3,1,-0.29,enough cells in well
Gpr152,1,0.18,enough cells in well
Tyw2,1,0.45,enough cells in well
Gtf2a1,1,-0.05,enough cells in well
Adipor1,1,1.25,enough cells in well
Lsm14b,1,-0.07,enough cells in well
Xlr4c,1,,fewer than 50 cells per well; well left out of calls
As3mt,1,,fewer than 50 cells per well; well left out of calls
Tbx4,1,-0.21,enough cells in well
Vsnl1,1,-0.39,enough cells in well
Myo5a,1,-0.2,enough cells in well
Appl2,1,0.88,enough cells in well
Cys1,1,-0.05,enough cells in well
Kti12,1,-0.22,enough cells in well
Pigyl,1,0.59,enough cells in well
Pcdhb9,1,1.59,enough cells in well
Timp3,1,0.94,enough cells in well
Tmem11,1,-0.99,enough cells in well
Fabp4,1,1.14,enough cells in well
Sertm1,1,1.62,enough cells in well
Coq7,1,1.68,enough cells in well
Trmt61a,1,0.03,enough cells in well
Pycr3,1,0.22,enough cells in well
Hk1,1,-0.18,enough cells in well
Gp9,1,0.75,enough cells in well
Bcap31,1,,fewer than 50 cells per well; well left out of calls
Cbr3,1,0.51,enough cells in well
Nup54,1,,fewer than 50 cells per well; well left out of calls
Vmn2r1,1,-0.7,enough cells in well
Adam1b,1,1.64,enough cells in well
Zfp652,1,-0.43,enough cells in well
Aipl1,1,-0.18,enough cells in well
H1f9,1,-0.46,enough cells in well
Rint1,1,2.33,enough cells in well
Sdccag8,1,-0.86,enough cells in well
Negr1,1,-1.42 (active),enough cells in well
Adss2,1,-0.48,enough cells in well
Hbq1a,1,2.17,enough cells in well
Cxcl3,1,1.71,enough cells in well
Obox6,1,1.6,enough cells in well
Piwil4,1,0.82,enough cells in well
Wdr17,1,0.65,enough cells in well
Rela,1,-0.36,enough cells in well
Srgn,1,-0.22,enough cells in well
A830018L16Rik,1,0.35,enough cells in well
Mbnl2,1,-1.67 (active),enough cells in well
B3galt4,1,-0.16,enough cells in well
Dhrs11,1,-1.44 (active),enough cells in well
St3gal1,1,-0.39,enough cells in well
Prlr,1,0.07,enough cells in well
Prlr,2,-0.4,enough cells in well
Nkx6-2,1,-0.93,enough cells in well
Mrpl11,1,0.69,enough cells in well
Cyp4a10,1,-0.05,enough cells in well
Wdr20rt,1,1.87,enough cells in well
Rpap3,1,,fewer than 50 cells per well; well left out of calls
Sox30,1,0.18,enough cells in well
Smad2,1,0.41,enough cells in well
H2-T3,1,-0.85,enough cells in well
Pmpca,1,1.18,enough cells in well
Slc36a4,1,,fewer than 50 cells per well; well left out of calls
Actl7a,1,-1.37 (active),enough cells in well
Arhgap28,1,1.48,enough cells in well
Or5d43,1,-0.65,enough cells in well
Or1o4,1,,fewer than 50 cells per well; well left out of calls
Csf1,1,0.12,enough cells in well
Obox3,1,-0.84,enough cells in well
Srsf9,1,3.28 (active),enough cells in well

9 entries from above, reformatted:
gene knocked down | pool no. | Tnf reporter robust z-score | fewer than 50 cells in well
Tbx4 | 1 | -0.21 | enough cells in well
Vsnl1 | 1 | -0.39 | enough cells in well
Myo5a | 1 | -0.2 | enough cells in well
Appl2 | 1 | 0.88 | enough cells in well
Cys1 | 1 | -0.05 | enough cells in well
Kti12 | 1 | -0.22 | enough cells in well
Pigyl | 1 | 0.59 | enough cells in well
Pcdhb9 | 1 | 1.59 | enough cells in well
Timp3 | 1 | 0.94 | enough cells in well
